Test in all cases: affinity purification with mass spectrometry
In experiment [1] the target is T1, Halo-SMAD4 (human), Q13485.
T1 chain: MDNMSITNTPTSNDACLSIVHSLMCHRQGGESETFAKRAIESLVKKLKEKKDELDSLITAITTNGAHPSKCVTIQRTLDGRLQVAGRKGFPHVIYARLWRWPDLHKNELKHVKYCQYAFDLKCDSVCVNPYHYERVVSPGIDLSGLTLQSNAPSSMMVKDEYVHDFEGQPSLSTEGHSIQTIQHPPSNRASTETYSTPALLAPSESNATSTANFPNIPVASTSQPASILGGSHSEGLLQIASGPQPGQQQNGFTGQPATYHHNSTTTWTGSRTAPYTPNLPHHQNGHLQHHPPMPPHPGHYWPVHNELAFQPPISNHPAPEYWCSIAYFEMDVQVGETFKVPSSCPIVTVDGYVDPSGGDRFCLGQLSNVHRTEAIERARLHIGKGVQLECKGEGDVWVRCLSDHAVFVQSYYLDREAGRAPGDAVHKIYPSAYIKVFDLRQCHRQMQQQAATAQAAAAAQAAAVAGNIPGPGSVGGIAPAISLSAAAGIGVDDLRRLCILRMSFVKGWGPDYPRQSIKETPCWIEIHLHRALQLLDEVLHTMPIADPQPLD
The note with it: remark: other sources report otherwise.

Experiment [2] addresses Halo-SMAD4 phosphorylated by BRK-YF (human) (UniProt Q13485).
For experiment [3], the target named is Halo-SMAD4 Y353F & Y412F (human) (UniProt Q13485).

Results are given in words; binding and its absence hold for the method and conditions named. In cells and extracts the contact can be indirect. These calls come from enrichment with a bait or labelling near it, and not all partners need be listed. For some of these results: No binding means not detected with the bait.

B1: SMAD3, P84022 1-425 (protein)
chain: MSSILPFTPPIVKRLLGWKKGEQNGQEEKWCEKAVKSLVKKLKKTGQLDELEKAITTQNVNTKCITIPRSLDGRLQVSHRKGLPHVIYCRLWRWPDLHSHHELRAMELCEFAFNMKKDEVCVNPYHYQRVETPVLPPVLVPRHTEIPAEFPPLDDYSHSIPENTNFPAGIEPQSNIPETPPPGYLSEDGETSDHQMNHSMDAGSPNLSPNPMSPAHNNLDLQPVTYCEPAFWCSISYYELNQRVGETFHASQPSMTVDGFTDPSNSERFCLGLLSNVNRNAAVELTRRHIGRGVRLYYIGGEVFAECLSDSAIFVQSPNCNQRYGWHPATVCKIPPGCNLKIFNNQEFAALLAQSVNQGFEAVYQLTRMCTIRMSFVKGWGAEYRRQTVTSTPCWIELHLNGPLQWLDKVLTQMGSPSIRCSSVS
For the molecule B1, the binding result in experiment [1] was “binds”.

B2: RNF138 (enzyme, UniProt Q8WVD3 1-245)
chain: MAEDLSAATSYTEDDFYCPVCQEVLKTPVRTTACQHVFCRKCFLTAMRESGAHCPLCRGNVTRRERACPERALDLENIMRKFSGSCRCCAKQIKFYRMRHHYKSCKKYQDEYGVSSIIPNFQISQDSVGNSNRSETSTSDNTETYQENTSSSGHPTFKCPLCQESNFTRQRLLDHCNSNHLFQIVPVTCPICVSLPWGDPSQITRNFVSHLNQRHQFDYGEFVNLQLDEETQYQTAVEESFQVNI
In the case of B2, the binding result in experiment [2] is “binds”; in experiment [3], “no binding”.

B3: SMAD2, Q15796 1-467 (protein)
chain: MSSILPFTPPVVKRLLGWKKSAGGSGGAGGGEQNGQEEKWCEKAVKSLVKKLKKTGRLDELEKAITTQNCNTKCVTIPSTCSEIWGLSTPNTIDQWDTTGLYSFSEQTRSLDGRLQVSHRKGLPHVIYCRLWRWPDLHSHHELKAIENCEYAFNLKKDEVCVNPYHYQRVETPVLPPVLVPRHTEILTELPPLDDYTHSIPENTNFPAGIEPQSNYIPETPPPGYISEDGETSDQQLNQSMDTGSPAELSPTTLSPVNHSLDLQPVTYSEPAFWCSIAYYELNQRVGETFHASQPSLTVDGFTDPSNSERFCLGLLSNVNRNATVEMTRRHIGRGVRLYYIGGEVFAECLSDSAIFVQSPNCNQRYGWHPATVCKIPPGCNLKIFNNQEFAALLAQSVNQGFEAVYQLTRMCTIRMSFVKGWGAEYRRQTVTSTPCWIELHLNGPLQWLDKVLTQMGSPSVRCSSMS
On to B3, for which the binding result in experiment [1] is recorded as “binds”.
